Experimental data as given in paper PMC8653791, “TBX2 controls a proproliferative gene expression program in melanoma”.

Chains of the proteins cited; added tags and fusions are not shown.
UniProt Q5H9F3: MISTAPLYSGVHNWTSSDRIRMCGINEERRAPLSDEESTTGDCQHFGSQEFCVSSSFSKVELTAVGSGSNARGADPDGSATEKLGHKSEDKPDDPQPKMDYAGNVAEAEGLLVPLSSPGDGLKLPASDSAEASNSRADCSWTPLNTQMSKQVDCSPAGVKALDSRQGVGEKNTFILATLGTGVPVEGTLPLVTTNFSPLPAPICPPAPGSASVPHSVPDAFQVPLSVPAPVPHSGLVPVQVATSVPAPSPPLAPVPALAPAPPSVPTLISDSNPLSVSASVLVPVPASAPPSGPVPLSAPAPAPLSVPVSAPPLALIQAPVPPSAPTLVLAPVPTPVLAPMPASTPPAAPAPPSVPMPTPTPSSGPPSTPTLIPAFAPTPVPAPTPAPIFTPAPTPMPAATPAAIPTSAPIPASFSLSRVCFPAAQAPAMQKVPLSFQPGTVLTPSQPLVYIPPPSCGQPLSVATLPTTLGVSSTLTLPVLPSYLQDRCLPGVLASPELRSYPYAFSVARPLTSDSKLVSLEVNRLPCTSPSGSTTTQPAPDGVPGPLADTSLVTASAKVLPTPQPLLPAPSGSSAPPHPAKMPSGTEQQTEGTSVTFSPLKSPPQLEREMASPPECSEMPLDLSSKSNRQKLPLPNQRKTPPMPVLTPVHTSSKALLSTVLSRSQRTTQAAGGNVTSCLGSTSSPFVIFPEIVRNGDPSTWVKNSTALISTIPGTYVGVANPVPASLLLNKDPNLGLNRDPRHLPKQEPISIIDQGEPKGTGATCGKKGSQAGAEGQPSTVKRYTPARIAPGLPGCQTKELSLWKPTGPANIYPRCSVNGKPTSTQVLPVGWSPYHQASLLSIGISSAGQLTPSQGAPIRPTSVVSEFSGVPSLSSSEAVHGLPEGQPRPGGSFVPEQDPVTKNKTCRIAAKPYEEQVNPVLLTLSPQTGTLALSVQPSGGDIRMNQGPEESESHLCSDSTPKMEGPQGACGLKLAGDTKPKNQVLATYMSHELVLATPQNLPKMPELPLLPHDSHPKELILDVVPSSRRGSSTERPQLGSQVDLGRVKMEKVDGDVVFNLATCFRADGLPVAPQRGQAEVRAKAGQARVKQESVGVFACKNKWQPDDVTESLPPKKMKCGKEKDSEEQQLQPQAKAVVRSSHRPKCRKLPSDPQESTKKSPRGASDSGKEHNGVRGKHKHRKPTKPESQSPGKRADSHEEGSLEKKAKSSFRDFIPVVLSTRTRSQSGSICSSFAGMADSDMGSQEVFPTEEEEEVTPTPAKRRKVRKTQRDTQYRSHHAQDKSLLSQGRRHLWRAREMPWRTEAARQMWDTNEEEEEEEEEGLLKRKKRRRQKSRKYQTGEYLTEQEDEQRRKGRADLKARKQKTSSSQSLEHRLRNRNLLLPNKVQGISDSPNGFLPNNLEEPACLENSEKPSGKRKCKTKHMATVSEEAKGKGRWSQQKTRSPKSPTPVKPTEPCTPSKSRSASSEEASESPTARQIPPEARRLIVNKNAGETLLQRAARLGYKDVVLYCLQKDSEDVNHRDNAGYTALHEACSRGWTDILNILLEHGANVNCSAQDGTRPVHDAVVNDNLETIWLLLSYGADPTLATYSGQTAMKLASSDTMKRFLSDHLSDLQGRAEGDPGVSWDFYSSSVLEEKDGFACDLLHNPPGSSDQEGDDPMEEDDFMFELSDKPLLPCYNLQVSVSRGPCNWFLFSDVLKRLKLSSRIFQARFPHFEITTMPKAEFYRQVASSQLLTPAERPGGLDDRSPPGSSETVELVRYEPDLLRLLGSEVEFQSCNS
UniProt P63208: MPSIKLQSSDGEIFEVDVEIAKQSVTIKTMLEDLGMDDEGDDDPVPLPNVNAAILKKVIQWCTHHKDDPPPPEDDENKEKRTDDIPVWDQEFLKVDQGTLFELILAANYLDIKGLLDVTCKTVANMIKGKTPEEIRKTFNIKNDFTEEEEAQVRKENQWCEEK
UniProt Q9P2D1: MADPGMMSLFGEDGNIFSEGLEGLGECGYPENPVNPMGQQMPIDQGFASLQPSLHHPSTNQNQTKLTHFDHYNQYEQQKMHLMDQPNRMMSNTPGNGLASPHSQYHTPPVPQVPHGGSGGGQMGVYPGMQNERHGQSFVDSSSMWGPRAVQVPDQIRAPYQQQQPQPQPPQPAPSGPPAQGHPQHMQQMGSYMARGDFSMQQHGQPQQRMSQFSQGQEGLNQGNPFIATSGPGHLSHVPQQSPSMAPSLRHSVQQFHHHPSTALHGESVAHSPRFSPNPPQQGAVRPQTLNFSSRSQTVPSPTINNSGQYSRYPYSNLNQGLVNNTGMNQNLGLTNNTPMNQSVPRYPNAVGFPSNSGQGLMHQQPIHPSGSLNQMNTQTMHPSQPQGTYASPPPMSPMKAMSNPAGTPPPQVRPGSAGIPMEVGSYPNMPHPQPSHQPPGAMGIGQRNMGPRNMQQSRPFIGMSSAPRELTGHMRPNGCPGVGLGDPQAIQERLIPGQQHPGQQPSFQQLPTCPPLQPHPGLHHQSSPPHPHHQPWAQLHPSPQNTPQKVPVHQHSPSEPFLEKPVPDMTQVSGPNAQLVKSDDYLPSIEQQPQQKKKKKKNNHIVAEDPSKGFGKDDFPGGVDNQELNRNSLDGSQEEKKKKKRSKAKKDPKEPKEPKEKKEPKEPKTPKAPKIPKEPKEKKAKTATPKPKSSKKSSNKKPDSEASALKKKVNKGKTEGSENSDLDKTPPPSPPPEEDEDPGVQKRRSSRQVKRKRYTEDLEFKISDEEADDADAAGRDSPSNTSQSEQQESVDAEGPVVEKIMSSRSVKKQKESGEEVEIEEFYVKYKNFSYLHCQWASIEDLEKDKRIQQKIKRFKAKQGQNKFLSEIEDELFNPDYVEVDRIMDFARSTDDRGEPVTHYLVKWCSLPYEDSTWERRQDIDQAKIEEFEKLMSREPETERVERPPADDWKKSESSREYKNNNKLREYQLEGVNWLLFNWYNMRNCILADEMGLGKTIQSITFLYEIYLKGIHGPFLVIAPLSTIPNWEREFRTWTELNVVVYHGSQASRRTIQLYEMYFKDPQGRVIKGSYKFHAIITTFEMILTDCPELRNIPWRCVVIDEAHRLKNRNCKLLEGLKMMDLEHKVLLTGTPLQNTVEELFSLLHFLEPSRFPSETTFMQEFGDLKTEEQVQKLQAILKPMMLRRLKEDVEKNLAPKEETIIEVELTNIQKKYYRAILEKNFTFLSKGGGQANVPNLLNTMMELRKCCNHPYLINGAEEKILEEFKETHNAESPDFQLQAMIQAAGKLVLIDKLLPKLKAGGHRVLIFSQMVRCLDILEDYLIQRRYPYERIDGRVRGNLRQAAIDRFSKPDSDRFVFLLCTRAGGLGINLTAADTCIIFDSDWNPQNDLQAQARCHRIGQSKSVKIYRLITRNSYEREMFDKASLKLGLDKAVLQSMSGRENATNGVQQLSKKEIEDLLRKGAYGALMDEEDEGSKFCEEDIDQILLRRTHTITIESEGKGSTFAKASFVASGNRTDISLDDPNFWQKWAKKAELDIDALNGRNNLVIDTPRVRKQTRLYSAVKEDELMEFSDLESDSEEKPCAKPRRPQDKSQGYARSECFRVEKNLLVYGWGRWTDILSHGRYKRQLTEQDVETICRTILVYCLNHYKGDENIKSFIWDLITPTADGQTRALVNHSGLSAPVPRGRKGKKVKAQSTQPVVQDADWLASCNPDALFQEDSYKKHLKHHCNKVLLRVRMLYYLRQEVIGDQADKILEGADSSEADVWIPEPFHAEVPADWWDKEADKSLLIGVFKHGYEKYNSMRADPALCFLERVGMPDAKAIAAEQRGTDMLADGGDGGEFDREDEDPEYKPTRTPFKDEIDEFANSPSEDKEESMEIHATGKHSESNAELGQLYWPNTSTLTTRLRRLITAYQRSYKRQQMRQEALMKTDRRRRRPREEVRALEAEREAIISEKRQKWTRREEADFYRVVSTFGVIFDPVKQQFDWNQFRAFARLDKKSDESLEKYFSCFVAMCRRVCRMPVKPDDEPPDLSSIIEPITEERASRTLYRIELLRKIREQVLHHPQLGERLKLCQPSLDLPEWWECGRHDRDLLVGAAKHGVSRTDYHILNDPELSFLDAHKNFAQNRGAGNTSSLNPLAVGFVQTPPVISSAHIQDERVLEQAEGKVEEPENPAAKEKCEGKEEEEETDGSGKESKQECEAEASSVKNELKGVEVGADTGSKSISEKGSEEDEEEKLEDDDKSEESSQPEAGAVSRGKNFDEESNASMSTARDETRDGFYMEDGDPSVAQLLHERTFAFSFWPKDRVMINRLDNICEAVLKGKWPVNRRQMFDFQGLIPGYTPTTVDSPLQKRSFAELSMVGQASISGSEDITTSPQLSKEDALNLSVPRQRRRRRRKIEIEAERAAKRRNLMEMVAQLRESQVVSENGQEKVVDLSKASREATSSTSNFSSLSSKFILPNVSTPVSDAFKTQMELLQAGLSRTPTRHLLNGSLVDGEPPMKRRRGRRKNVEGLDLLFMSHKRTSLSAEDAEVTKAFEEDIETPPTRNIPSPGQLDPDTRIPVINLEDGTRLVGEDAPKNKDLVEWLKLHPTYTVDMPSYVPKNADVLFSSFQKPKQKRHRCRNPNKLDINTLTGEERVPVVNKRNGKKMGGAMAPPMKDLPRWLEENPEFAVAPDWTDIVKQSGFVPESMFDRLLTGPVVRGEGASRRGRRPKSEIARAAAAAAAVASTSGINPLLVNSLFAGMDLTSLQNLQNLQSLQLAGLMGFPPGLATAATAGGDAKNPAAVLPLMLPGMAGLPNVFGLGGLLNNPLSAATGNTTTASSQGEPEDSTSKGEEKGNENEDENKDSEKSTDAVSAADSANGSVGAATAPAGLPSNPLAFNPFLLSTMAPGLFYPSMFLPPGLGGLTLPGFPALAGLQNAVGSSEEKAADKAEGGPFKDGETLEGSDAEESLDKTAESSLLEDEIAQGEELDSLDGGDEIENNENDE
UniProt Q9BSM1: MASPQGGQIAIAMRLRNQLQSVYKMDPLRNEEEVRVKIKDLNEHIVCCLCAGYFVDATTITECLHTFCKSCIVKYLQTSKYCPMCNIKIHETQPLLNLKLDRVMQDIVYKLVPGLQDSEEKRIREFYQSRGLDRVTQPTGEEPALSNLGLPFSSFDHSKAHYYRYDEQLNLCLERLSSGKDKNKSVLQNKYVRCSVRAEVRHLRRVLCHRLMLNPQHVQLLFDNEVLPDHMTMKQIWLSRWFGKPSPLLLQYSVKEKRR
UniProt Q9NQB0: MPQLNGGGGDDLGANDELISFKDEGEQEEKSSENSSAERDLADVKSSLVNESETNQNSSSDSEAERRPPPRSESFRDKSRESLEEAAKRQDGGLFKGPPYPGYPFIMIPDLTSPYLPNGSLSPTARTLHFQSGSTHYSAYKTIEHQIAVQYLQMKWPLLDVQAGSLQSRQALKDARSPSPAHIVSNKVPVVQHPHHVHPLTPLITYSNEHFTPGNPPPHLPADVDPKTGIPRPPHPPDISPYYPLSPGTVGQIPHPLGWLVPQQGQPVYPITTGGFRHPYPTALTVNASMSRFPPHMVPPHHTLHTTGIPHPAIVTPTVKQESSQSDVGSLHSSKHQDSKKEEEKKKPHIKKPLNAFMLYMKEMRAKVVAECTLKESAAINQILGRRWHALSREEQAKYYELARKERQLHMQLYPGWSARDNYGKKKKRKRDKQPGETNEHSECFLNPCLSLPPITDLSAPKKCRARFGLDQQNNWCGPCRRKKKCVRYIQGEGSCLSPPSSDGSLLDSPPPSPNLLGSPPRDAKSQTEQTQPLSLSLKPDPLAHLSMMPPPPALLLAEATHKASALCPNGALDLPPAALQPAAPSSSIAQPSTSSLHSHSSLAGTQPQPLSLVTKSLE
UniProt P19532: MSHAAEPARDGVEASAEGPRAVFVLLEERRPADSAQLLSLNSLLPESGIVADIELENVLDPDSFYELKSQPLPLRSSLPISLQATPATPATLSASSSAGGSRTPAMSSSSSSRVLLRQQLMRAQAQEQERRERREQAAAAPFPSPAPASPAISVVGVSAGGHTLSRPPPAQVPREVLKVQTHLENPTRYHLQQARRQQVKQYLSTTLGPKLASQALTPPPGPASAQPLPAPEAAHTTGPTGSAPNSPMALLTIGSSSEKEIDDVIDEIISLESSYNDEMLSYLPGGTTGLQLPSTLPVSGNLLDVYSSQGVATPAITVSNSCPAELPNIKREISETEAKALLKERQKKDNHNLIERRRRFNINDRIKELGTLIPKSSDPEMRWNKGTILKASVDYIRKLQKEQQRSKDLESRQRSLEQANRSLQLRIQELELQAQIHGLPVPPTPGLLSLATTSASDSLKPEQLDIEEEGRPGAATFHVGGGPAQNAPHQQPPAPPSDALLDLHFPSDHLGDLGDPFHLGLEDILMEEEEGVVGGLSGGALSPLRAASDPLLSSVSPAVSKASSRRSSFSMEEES

T1: BirA*-FLAG-Tbx2 (UniProt Q60707)
T1 sequence: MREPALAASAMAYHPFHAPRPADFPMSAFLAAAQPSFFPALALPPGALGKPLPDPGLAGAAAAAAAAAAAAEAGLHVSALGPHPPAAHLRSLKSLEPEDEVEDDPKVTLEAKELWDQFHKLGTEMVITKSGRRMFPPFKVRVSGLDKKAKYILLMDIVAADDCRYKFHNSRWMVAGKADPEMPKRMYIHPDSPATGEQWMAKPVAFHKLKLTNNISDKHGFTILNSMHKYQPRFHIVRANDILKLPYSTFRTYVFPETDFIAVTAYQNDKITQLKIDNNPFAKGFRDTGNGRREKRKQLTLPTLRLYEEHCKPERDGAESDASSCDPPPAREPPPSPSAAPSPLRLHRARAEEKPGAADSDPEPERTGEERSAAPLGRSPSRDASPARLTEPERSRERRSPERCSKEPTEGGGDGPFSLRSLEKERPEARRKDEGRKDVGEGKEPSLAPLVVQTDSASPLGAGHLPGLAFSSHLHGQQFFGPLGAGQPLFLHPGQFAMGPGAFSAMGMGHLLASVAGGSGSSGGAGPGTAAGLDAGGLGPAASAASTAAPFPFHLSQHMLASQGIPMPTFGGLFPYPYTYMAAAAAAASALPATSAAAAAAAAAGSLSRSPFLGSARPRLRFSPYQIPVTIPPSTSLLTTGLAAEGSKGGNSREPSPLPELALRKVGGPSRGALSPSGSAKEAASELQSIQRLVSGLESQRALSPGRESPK


The molecules below were run against T1, BirA*-FLAG-Tbx2 (assay: proximity labelling; BioID: BirA*(R118G)-FLAG-Tbx2 stably expressed in Flp-In T-REx HEK293, 1 ug/mL tetracycline and 50 uM biotin for 24 h; RIPA lysis; biotinylated proteins captured on streptavidin-sepharose and identified by mass spectrometry; SAINTexpress, 1% FDR; controls BirA*-FLAG-GFP, BirA*-NLS-FLAG, empty cell line).

| Molecule | binding |
| --- | --- |
| BCL11A (from UniProt Q9H165 1-835) | binds |
| BCORL1 (from UniProt Q5H9F3 1-1785) | binds |
| SKP1 (from UniProt P63208 1-163) | binds |
| TFAP2 (human (endogenous in HEK293)) | binds |
| nuclear receptor corepressor 1 (NCOR1) (from UniProt O75376 1-2440) | binds |
| KDM2B (protein, UniProt Q8NHM5 1-1336) MAGPQMGGSAEDHPPRKRHAAEKQKKKTVIYTKCFEFESATQRPIDRQRYDENEDLSDVEEIVSVRGFSLEEKLRSQLYQGDFVHAMEGKDFNYEYVQREALRVPLIFREKDGLGIKMPDPDFTVRDVKLLVGSRRLVDVMDVNTQKGTEMSMSQFVRYYETPEAQRDKLYNVISLEFSHTKLEHLVKRPTVVDLVDWVDNMWPQHLKEKQTEATNAIAEMKYPKVKKYCLMSVKGCFTDFHIDFGGTSVWYHVFRGGKIFWLIPPTLHNLALYEEWVLSGKQSDIFLGDRVERCQRIELKQGYTFFIPSGWIHAVYTPVDSLVFGGNILHSFNVPMQLRIYEIEDRTRVQPKFRYPFYYEMCWYVLERYVYCVTQRSHLTQEYQRESMLIDAPRKPSIDGFSSDSWLEMEEEACDQQPQEEEEKDEEGEGRDRAPKPPTDGSTSPTSTPSEDQEALGKKPKAPALRFLKRTLSNESEESVKSTTLAVDYPKTPTGSPATEVSAKWTHLTEFELKGLKALVEKLESLPENKKCVPEGIEDPQALLEGVKNVLKEHADDDPSLAITGVPVVTWPKKTPKNRAVGRPKGKLGPASAVKLAANRTTAGARRRRTRCRKCEACLRTECGECHFCKDMKKFGGPGRMKQSCIMRQCIAPVLPHTAVCLVCGEAGKEDTVEEEEGKFNLMLMECSICNEIIHPGCLKIKESEGVVNDELPNCWECPKCNHAGKTGKQKRGPGFKYASNLPGSLLKEQKMNRDNKEGQEPAKRRSECEEAPRRRSDEHSKKVPPDGLLRRKSDDVHLRKKRKYEKPQELSGRKRASSLQTSPGSSSHLSPRPPLGSSLSPWWRSSLTYFQQQLKPGKEDKLFRKKRRSWKNAEDRMALANKPLRRFKQEPEDELPEAPPKTRESDHSRSSSPTAGPSTEGAEGPEEKKKVKMRRKRRLPNKELSRELSKELNHEIQRTENSLANENQQPIKSEPESEGEEPKRPPGICERPHRFSKGLNGTPRELRHQLGPSLRSPPRVISRPPPSVSPPKCIQMERHVIRPPPISPPPDSLPLDDGAAHVMHREVWMAVFSYLSHQDLCVCMRVCRTWNRWCCDKRLWTRIDLNHCKSITPLMLSGIIRRQPVSLDLSWTNISKKQLSWLINRLPGLRDLVLSGCSWIAVSALCSSSCPLLRTLDVQWVEGLKDAQMRDLLSPPTDNRPGQMDNRSKLRNIVELRLAGLDITDASLRLIIRHMPLLSKLHLSYCNHVTDQSINLLTAVGTTTRDSLTEINLSDCNKVTDQCLSFFKRCGNICHIDLRYCKQVTKEGCEQFIAEMSVSVQFGQVEEKLLQKLS | binds |
| YAF2 (protein, UniProt Q8IY57 1-180) MGDKKSPTRPKRQPKPSSDEGYWDCSVCTFRNSAEAFKCMMCDVRKGTSTRKPRPVSQLVAQQVTQQFVPPTQSKKEKKDKVEKEKSEKETTSKKNSHKKTRPRLKNVDRSSAQHLEVTVGDLTVIITDFKEKTKSPPASSAASADQHSQSGSSSDNTERGMSRSSSPRGEASSLNGESH | no binding |

The next lines start with the values.

| binding | Molecule |
| --- | --- |
| binds | BCOR (from UniProt Q6W2J9 1-1755) |
| binds | CHD7 (from UniProt Q9P2D1 1-2997) |
| binds | PCGF1 (endogenous in HEK293) (from UniProt Q9BSM1 1-259) |
| binds | TCF7L2 (TCF4) (from UniProt Q9NQB0 1-619) |
| no binding | TFE3 (from UniProt P19532 1-575) |
| no binding | RYBP (protein, UniProt Q8N488 1-228) MTMGDKKSPTRPKRQAKPAADEGFWDCSVCTFRNSAEAFKCSICDVRKGTSTRKPRINSQLVAQQVAQQYATPPPPKKEKKEKVEKQDKEKPEKDKEISPSVTKKNTNKKTKPKSDILKDPPSEANSIQSANATTKTSETNHTSRPRLKNVDRSTAQQLAVTVGNVTVIITDFKEKTRSSSTSSSTVTSSAGSEQQNQSSSGSESTDKGSSRSSTPKGDMSAVNDESF |

Results are given in words; binding and its absence hold for the method and conditions named. In cells and extracts the contact can be indirect. These calls come from enrichment with a bait or labelling near it, and not all partners need be listed. No binding means not detected with the bait. Where a sequence is shown, tags or fusion partners need not be part of it.
